# Experimental data: paper PMC12238530, “Dynamic SAS-6 phosphorylation aids centrosome duplication and elimination in C. elegans oogenesis” (EMBO Reports, 2025)
# The chains behind the UniProt entries cited, without tags or fusion partners. Where a name states a change or a piece, a line headed by the entry shows the natural chain unless it says otherwise.
# UniProt O62479: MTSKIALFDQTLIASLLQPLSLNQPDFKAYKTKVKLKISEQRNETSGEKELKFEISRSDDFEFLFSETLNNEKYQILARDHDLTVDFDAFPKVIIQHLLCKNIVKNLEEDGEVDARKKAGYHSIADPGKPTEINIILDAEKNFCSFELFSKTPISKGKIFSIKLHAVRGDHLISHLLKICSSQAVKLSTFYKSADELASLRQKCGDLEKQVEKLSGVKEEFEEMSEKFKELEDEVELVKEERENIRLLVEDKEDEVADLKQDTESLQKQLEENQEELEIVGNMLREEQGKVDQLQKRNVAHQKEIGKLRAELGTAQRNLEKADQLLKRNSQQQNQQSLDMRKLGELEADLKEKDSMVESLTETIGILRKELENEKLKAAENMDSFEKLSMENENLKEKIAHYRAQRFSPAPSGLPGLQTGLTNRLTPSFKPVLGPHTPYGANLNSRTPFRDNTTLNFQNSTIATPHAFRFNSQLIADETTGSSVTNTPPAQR
# Results are given in words; binding and its absence hold for the method and conditions named. In cells and extracts the contact can be indirect. Sequences can lack the tags named with a protein.
# Target: GST-SAS-6(∆C) (C. elegans) (UniProt O62479)
# Assay: pull-down; GST fusion proteins immobilised on glutathione Sepharose 4B; precleared HEK293T lysate in P150 buffer, 4 °C, 4 h; immunoblot and CBB staining (Fig. 4C, 5G); only the target purified
binder,measurement,value
"SAS-4-GFP (protein, UniProt P34402 1-808) MASDENIGADGEQKPSRPFLRKGQGTARFRMPRNNKTSAGAPPTSELSSASSPSINVPRFSLSNALPNSARTVDSGISNEDETRPPTTASLPMDQPSLSSSPENRLNPAPSVAEEHGHSGQHAEEEEDNDTDEVSAMPSFVPDEPSTLVNSDHELSDDALKYKNAAAEFKAFERRMDSMRSASTITTSLATPSSCAPSNSSEPPTRSTPIMNDLGVGPNNHNWPSSMQELSGISLETPQARPLGSNRINQLVRSEAQTGISLLQHHERPTVTAPLRRNDMMNSSRQNPQNGNVQDENRPEHVYDQPIHVPGSSLDRQKLEIEIRRHRNLNIQLRDTIAHLDYAEESVHTTKRQLEEKISEVNNFKKELIEEFKKCKKGVEEEFEKKFEKIKEDYDELYEKLKRDQRDLERDQKILKKGTGERNKEFTETIATLRDKLRASETKNAQYRQDIRVRDEKLKKKDEEIEKLQKDGNRLKSTLQTLEKRVKQLRTEKERDDKEKEMFAKVAMNRKTSNPVPPVLNQSVPISITSNGPSRHPSSSSLTTFRKPSTSNRERGVSWADEPNEQSLEAVPQEFLMMPVKEMPGKFGKCTIYRDSLGETSKVTDTIANGLLFEYSNGDLRWVNRQNAVNIYISAVDKTVRIDLPTYNISIIHTFQRQVEVLRPGNNITLISIKRREVRTDLIYQNGMYKTEIFNRDGRYVTKDFSNQEVSRKYNPGTHTYRDNQCRYVLVTDYNDFELVEPEFRLRWYQGDPTGLNNQYILKIIGRPECSEKTLRLEVNLSTCEGTLETAEMIGDKRRKTTLFQWKK",binding,no binding
